Results published in patent publication US20220289816A1, “IMMUNOTHERAPY WITH B*07 RESTRICTED PEPTIDES AND COMBINATION OF PEPTIDES AGAINST CANCERS AND RELATED METHODS” (Immatics Biotechnologies GmbH, priority 2018, published 2022).

System: tumor tissue samples and normal tissue samples (HLA-B*07 positive)
Test: Identification and quantitation of tumor associated peptides presented on the cell surface (HLA immunoprecipitation, label-free LC-MS)
Parameters: species or system human
Settings: Table 8a; cancer entities on which the peptide was found presented (abbreviations in table head)

Substance | Peptide Presentation on cancer entities
129 (MTLPATTLTL; listed as Homo sapiens) [compound 129] | BRCA, CCC, CLL, CRC, GBC, GBM, HCC, HNSCC, MEL, NSCLCadeno, NSCLCsquam, OC, OSCAR, PACA, RCC, SCLC, UBC, UEC
130 (GAYDKARYL; listed as Homo sapiens) [compound 130] | BRCA
131 (MPFRNIRSIL; listed as Homo sapiens) [compound 131] | HCC
133 (LPELPTTLTF; listed as Homo sapiens) [compound 133] | NSCLCadeno
134 (VAAAARLTL; listed as Homo sapiens) [compound 134] | MEL
135 (MPRLLRLSL; listed as Homo sapiens) [compound 135] | UEC
136 (QPDHAGIFRVF; listed as Homo sapiens) [compound 136] | HNSCC, OSCAR
137 (SPQLSYFEY; listed as Homo sapiens) [compound 137] | OSCAR
138 (VPFNLITEY; listed as Homo sapiens) [compound 138] | MEL
140 (TPFPDIHWF; listed as Homo sapiens) [compound 140] | NSCLCsquam, RCC, SCLC
143 (YPMIPPAQL; listed as Homo sapiens) [compound 143] | SCLC
144 (RPVQGIPTY; listed as Homo sapiens) [compound 144] | MEL
145 (VPAQRLGLLL; listed as Homo sapiens) [compound 145] | BRCA, GBM, HNSCC, NSCLCsquam, OC
148 (KPHLIYRQ; listed as Homo sapiens) [compound 148] | AML, BRCA, CRC, HCC, HNSCC, MEL, NSCLCadeno, OSCAR, RCC, SCLC, UEC
150 (APLHGGGSL; listed as Homo sapiens) [compound 150] | PRCA
151 (QPTWNTQTRL; listed as Homo sapiens) [compound 151] | NHL
154 (RPPPSRRAVL; listed as Homo sapiens) [compound 154] | GBM
155 (APIPRLIEG; listed as Homo sapiens) [compound 155] | OSCAR
156 (GSRPVTGSV; listed as Homo sapiens) [compound 156] | BRCA
157 (RPVTGSVC; listed as Homo sapiens) [compound 157] | BRCA, NSCLCadeno
158 (SVPVATVEL; listed as Homo sapiens) [compound 158] | CLL
159 (TPMTVPRI; listed as Homo sapiens) [compound 159] | CLL, NHL
160 (IPVSHPVLTF; listed as Homo sapiens) [compound 160] | BRCA, CRC, GBM, HCC, NSCLCadeno
161 (ASKILETSL; listed as Homo sapiens) [compound 161] | MEL
163 (FRYPNGVSL; listed as Homo sapiens) [compound 163] | HCC
164 (RAAGRRLQL; listed as Homo sapiens) [compound 164] | HCC

Substance | Peptide Presentation on cancer entities
166 (YAYTSRVIL; listed as Homo sapiens) [compound 166] | NHL
168 (SPSGQRDVSL; listed as Homo sapiens) [compound 168] | MEL
169 (RPFSVSSISQL; listed as Homo sapiens) [compound 169] | MEL
170 (APEGKRLGF; listed as Homo sapiens) [compound 170] | MEL
171 (LPLGGHKSL; listed as Homo sapiens) [compound 171] | MEL
172 (SAQSLHPVL; listed as Homo sapiens) [compound 172] | GBM
173 (VIINNPISL; listed as Homo sapiens) [compound 173] | NSCLCother
174 (IPVTSSVTL; listed as Homo sapiens) [compound 174] | NSCLCsquam,OSCAR
175 (AAFPHKIIF; listed as Homo sapiens) [compound 175] | OSCAR
177 (VWEPQGSSRSL; listed as Homo sapiens) [compound 177] | UEC
178 (VPYYPRANL; listed as Homo sapiens) [compound 178] | OSCAR
179 (PRVRLLLL; listed as Homo sapiens) [compound 179] | GBC, HNSCC
180 (RLRDYISSL; listed as Homo sapiens) [compound 180] | CLL, NHL
183 (VPRRPARAL; listed as Homo sapiens) [compound 183] | BRCA, GBM, MEL
184 (KIIASGNHL; listed as Homo sapiens) [compound 184] | NSCLCother
185 (RPVLTASSF; listed as Homo sapiens) [compound 185] | NHL
188 (HAAASFETL; listed as Homo sapiens) [compound 188] | NSCLCadeno
190 (RLAHVRARL; listed as Homo sapiens) [compound 190] | UEC
191 (KPKAVKPKAA; listed as Homo sapiens) [compound 191] | NSCLCadeno
193 (LPALKEEAF; listed as Homo sapiens) [compound 193] | PRCA
194 (HPNKIKASL; listed as Homo sapiens) [compound 194] | BRCA
195 (NPIFGRKEL; listed as Homo sapiens) [compound 195] | UEC
200 (EPFHLIVSY; listed as Homo sapiens) [compound 200] | CRC, HNSCC, MEL, NSCLCadeno, NSCLCsquam, OSCAR, RCC, SCLC
201 (LPIARVLTV; listed as Homo sapiens) [compound 201] | UEC
203 (KPRGPIDI; listed as Homo sapiens) [compound 203] | CRC, GBC, NSCLCadeno
204 (FPYSGDKILV; listed as Homo sapiens) [compound 204] | SCLC, UBC, UEC

Substance | Peptide Presentation on cancer entities
206 (TPRIGPKVSL; listed as Homo sapiens) [compound 206] | AML, BRCA, CCC, CLL, CRC, GBC, GBM, GC, HCC, HNSCC, MEL, NSCLCadeno, NSCLCsquam, OSCAR, PACA, RCC, SCLC, UBC, UEC
207 (VPSDITTAF; listed as Homo sapiens) [compound 207] | NSCLCadeno, OSCAR, SCLC
209 (KIEQIRAVL; listed as Homo sapiens) [compound 209] | OSCAR
210 (IPENRVVSY; listed as Homo sapiens) [compound 210] | OSCAR
211 (IPDTIASVL; listed as Homo sapiens) [compound 211] | MEL
212 (VPYAAQAAL; listed as Homo sapiens) [compound 212] | BRCA
214 (LPLKFFPII; listed as Homo sapiens) [compound 214] | UEC
218 (VQRTPPPI; listed as Homo sapiens) [compound 218] | GC, NSCLCadeno, NSCLCsquam, OSCAR
219 (VPHTGRYTCL; listed as Homo sapiens) [compound 219] | RCC
221 (LPQRPNARL; listed as Homo sapiens) [compound 221] | CCC, CRC, GBC, GC, HCC, HNSCC, MEL, NSCLCadeno, NSCLCsquam, OC, OSCAR, PACA, PRCA, RCC, SCLC, UBC, UEC
223 (KAHVRIEL; listed as Homo sapiens) [compound 223] | CRC
226 (APGGSSRSSL; listed as Homo sapiens) [compound 226] | AML
229 (FPNAGPRHLL; listed as Homo sapiens) [compound 229] | AML, CLL, NHL, OC, RCC
232 (TAYPSLRLL; listed as Homo sapiens) [compound 232] | BRCA, HCC, MEL, NHL, NSCLCadeno, NSCLCsquam, PACA, SCLC, UEC
233 (MAYDRFIAI; listed as Homo sapiens) [compound 233] | CRC, GBC, NSCLCadeno, RCC
234 (HPRAPGEQQRL; listed as Homo sapiens) [compound 234] | BRCA, CRC, UEC
235 (AQNPAGTAL; listed as Homo sapiens) [compound 235] | MEL
237 (LPRAGGAF; listed as Homo sapiens) [compound 237] | GBC, GC, NSCLCadeno, PACA, RCC
238 (LPRAGGAFLM; listed as Homo sapiens) [compound 238] | HNSCC
239 (VLPRAGGAFLM; listed as Homo sapiens) [compound 239] | NSCLCadeno
241 (LPKAALLV; listed as Homo sapiens) [compound 241] | CLL
242 (IPETASVVAI; listed as Homo sapiens) [compound 242] | AML, CCC, CRC, NSCLCadeno, NSCLCsquam
243 (MARTGGMVVI; listed as Homo sapiens) [compound 243] | CRC, NSCLCadeno, NSCLCsquam
246 (RPILKEQSSSSF; listed as Homo sapiens) [compound 246] | GBC, HNSCC, NSCLCsquam, OSCAR
